# Experimental data as given in PubChem BioAssay AID493014 (National Center for Advancing Translational Sciences (NCATS), 2011).
# Some of the results follow. These are further read-outs of the screen, such as a control signal, another cell line or another target. No call is given for them. The list favours compounds with an active or inconclusive main result. The note in brackets gives the kind of curve behind each potency; many fits are weak.
# Assay: qHTS Assay to Find Inhibitors of Chronic Active B-Cell Receptor Signaling
# Conditions: ABC-DLBCL IkBa-CBG/CBR reporter, luminescence ratio (green luciferase fused to IkBa over red control in TMD8 lymphoma cells), 4 h
# In short: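 TMD8 ABC-DLBCL cells carrying doxycycline-inducible green luciferase fused to IkappaBalpha plus unfused red luciferase were exposed to compounds (up to 46 uM) for 4 hrs at 37C. Activity came from the overlap-corrected green/red luminescence ratio.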
# [1] = measured here: CBR red luminescence, cell number
# [2] = measured here: IkBa-CBG green luminescence
Structure (SMILES),AC50 [1],AC50 [2]
Cc1ccc(S(=O)(=O)c2ncccc2[N+](=O)[O-])cc1,"20 µM [falling, partial curve, poor fit]",–
O=C(Nc1ccc(Cl)cc1C(=O)NCCN1CCOCC1)c1ccc(Cl)cc1Cl,"6.51 µM [rising, single point]",–
CCN(c1ccccc1)c1ncnc2c1cnn2-c1ccc(OC)cc1,"11.2 µM [rising, partial curve, poor fit]",–
CC(C)(C)c1ccc(C(=O)NCC(=O)NCC(C)(C)N2CCOCC2)cc1,"6.51 µM [rising, partial curve, poor fit]",–
CC(C)CC(=O)Nc1ccccc1N1CCN(C(=O)c2ccccc2)CC1,"29.1 µM [falling, single point]",–
O=C(N/N=C/c1ccc(Cl)c(Cl)c1)c1ccc2nc[nH]c2c1,"2 µM [falling, full curve, poor fit]",–
COc1ccc(-c2nc(NC(=O)Cn3ccc(C(F)(F)F)n3)sc2C)cc1,"29.1 µM [falling, single point]",–
CC(C)S(=O)(=O)C1=NSC2=NC(=O)/C(=C\c3ccc(-c4ccccc4)o3)C(=N)N21,"29.1 µM [falling, single point]","8.2 µM [rising, partial curve, poor fit]"
C=CCSc1nsc(NC(=O)Nc2ccc(F)cc2)n1,"1.26 µM [falling, full curve]",–
CCC(CO)Oc1cc(NC(=O)c2cccc(OC)c2)c2ncn(C(C)C)c2c1 (configuration not stated),"29.1 µM [falling, single point]",–
C#CCOC(=O)C(NC(=O)c1ccccc1)=C(C)C,"0.13 µM [rising, full curve, poor fit]",–
COc1ccccc1OCCCC(=O)Nc1nccs1,"12.6 µM [falling, partial curve]",–
COc1cccc(NC(=O)CSc2nnc(Cc3cccn3C)n2-c2ccc(F)cc2)c1,"29.1 µM [falling, partial curve, poor fit]",–
Cc1cnc(NS(=O)(=O)c2ccc(Cl)cc2)c(Br)c1,"35.5 µM [falling, single point]",–
COc1ccc(Nc2cc(C(=O)NCCCN3CCN(C)CC3)c3ccccc3n2)c(OC)c1,"5.62 µM [falling, partial curve]",–
COc1ccc(C(=O)N2CCN(S(=O)(=O)c3ccc(Cl)cc3)CC2)cc1OC,"0.00651 µM [falling, full curve, poor fit]",–
CC(C)(C)SCCNC(=O)/C=C/c1ccc(F)cc1,"4.61 µM [rising, partial curve, poor fit]",–
COc1cc(N)c(Cl)cc1C(=O)OCC(=O)c1ccc2c(c1)NC(=O)CO2,"16.4 µM [falling, partial curve]",–
O=C(O)c1ccc(COc2ccc3ccccc3c2/C=C2/NC(=O)N(Cc3ccc(F)cc3)C2=O)cc1,"2.82 µM [falling, partial curve, poor fit]",–
COc1ccc(OC)c(Nc2nc(-c3ccc(O)c(O)c3)cs2)c1,"32.6 µM [falling, single point]",–
CC(C)C[C@H](NC(=O)c1nc[nH]c1C(=O)NC1CCN(C(=O)OC(C)(C)C)CC1)C(=O)OCc1ccccc1,"14.1 µM [falling, single point]",–
CCOC(=O)CN/C=C(\C#N)c1ccc(F)cc1,"22.4 µM [rising, single point]",–

Structure (SMILES),AC50 [1],AC50 [2]
CC(C)Cn1c(=O)c2c(nc3n2CCCN3Cc2ccccc2)n(C)c1=O,"11.2 µM [falling, single point]",–
COc1ccc(Cl)cc1NC(=O)CN1CCC(n2nnc3ccccc32)CC1,"14.6 µM [rising, partial curve, poor fit]",–
O=[N+]([O-])c1ccc2nc(NS(=O)(=O)c3ccc(F)cc3)sc2c1,"2.82 µM [rising, partial curve, poor fit]",–
S=C(NCc1ccccc1)NCc1ccc(Cl)cc1,"0.891 µM [rising, full curve, poor fit]",–
COc1ccc(NC(=O)Cn2nnc(C(=O)NCc3ccccc3OC)c2N)cc1Cl,"14.6 µM [rising, partial curve, poor fit]",–
COc1cccc(NC(=O)c2ccc3c(c2)OCCO3)c1,"3.98 µM [falling, partial curve, poor fit]",–
CCOC(=O)c1c(NC(=O)C[n+]2ccc(Cc3ccccc3)cc2)sc(C)c1C,"35.5 µM [falling, single point]",–
NC(=O)N/N=C/c1ccc(OCc2cccc(Cl)c2)cc1,"15.8 µM [rising, partial curve]",–
C/C(=N/NC(=O)COc1cc(C)ccc1C(C)C)C(=O)O,–,"11.2 µM [falling, partial curve]"
Cc1cc(=O)n2nc(N3CCCC(C(=O)NCc4ccc5c(c4)OCO5)C3)sc2n1 (configuration not stated),"16.4 µM [rising, partial curve, poor fit]",–
O=C1c2ccccc2-c2onc3ccc(N4CCCC4)c1c23,"10 µM [falling, partial curve, poor fit]",–
O=c1[nH]c(/C=C/c2ccc(Br)cc2)nc2ccccc12,"4.47 µM [rising, partial curve, poor fit]",–
COc1cccc(NC(=O)c2ccc3c(c2)CCCC3)c1,"11.2 µM [falling, partial curve]",–
Cc1ccccc1SCC(=O)NNC(=O)c1ccccc1O,"17.8 µM [falling, single point]",–
O=C1CCCC(O)=C1C=Nc1cccc(C(F)(F)F)c1,"10 µM [rising, partial curve]",–
CC1SC2(NC1=O)C1CC3CC(C1)CC2C3 (configuration not stated),"5.62 µM [rising, partial curve, poor fit]",–
CC(=O)Nc1ccc(S(=O)(=O)Nc2nc3ccccc3nc2Nc2ccc3ccccc3c2)cc1,"29.1 µM [falling, single point]",–
O=C1c2cccc3cccc(c23)C(=O)N1c1cccnc1,"14.1 µM [rising, single point]",–
CC(=O)OCC12COC3c4ccccc4OC(C)(CC1C)C3C2C (configuration not stated),"1.12 µM [falling, single point]",–
CCN1C(=O)c2ccc(C(=O)NCc3ccccc3)cc2C1=O,"29.1 µM [falling, single point]",–
CC(=O)Nc1ccc(NC(=O)CSc2nc3c([nH]c4ccccc43)c(=O)n2-c2ccccc2F)cc1,"22.4 µM [falling, single point]",–
O=C(N=c1nc2ccccn2s1)c1ccccc1,"2.24 µM [falling, full curve, poor fit]",–

# Ordered by SMILES length (descending): part of the list above.
Structure (SMILES),AC50 [1],AC50 [2]
COc1ccc(Nc2cc(C(=O)NCCCN3CCN(C)CC3)c3ccccc3n2)c(OC)c1,"5.62 µM [falling, partial curve]",–
CC(=O)OCC12COC3c4ccccc4OC(C)(CC1C)C3C2C (configuration not stated),"1.12 µM [falling, single point]",–
O=C1CCCC(O)=C1C=Nc1cccc(C(F)(F)F)c1,"10 µM [rising, partial curve]",–

# Going on with the list.

Structure (SMILES),AC50 [1],AC50 [2]
Cc1ccc(C(=O)NNC(=O)CCCN2C(=O)/C(=C/c3ccccc3Cl)SC2=S)cc1,"2.31 µM [falling, full curve]",–
CC1(C)CC(=O)C2=C(C1)c1c(ccc3ccccc13)NC2c1ccc(C(=O)O)cc1 (configuration not stated),"11.2 µM [falling, partial curve]",–
Nc1cc2c(cc1Cl)N(Cc1ccccc1)C(=O)CO2,"29.1 µM [rising, single point]",–
Cc1c(Nc2c3c(c(C#N)c4nc5ccccc5n24)CCC3)c(=O)n(-c2ccccc2)n1C,"0.631 µM [falling, partial curve, poor fit]",–
Cc1ccc2c(C)nc(NC3=NCN(CCc4ccccc4)CN3)nc2c1,"5.01 µM [falling, partial curve]",–
COc1ccc(C(=O)/C=C/Nc2cccc(O)c2)cc1,"25.9 µM [falling, single point]",–
Cc1ccc(-c2cc(C(=O)N3CCCCCC3)no2)cc1,"11.2 µM [falling, partial curve, poor fit]",–
COc1cccc(N2CCN(Cc3ccsc3)CC2)c1,"29.1 µM [rising, single point]",–
COc1ccc(OC)c(/C=N/N=C(\N)c2nonc2N)c1,"10 µM [falling, single point]",–
CC1S/C(=N/N=C2CCCCC2)NC1=O (configuration not stated),–,"20.6 µM [falling, single point]"
COc1ccc2c(c1)c(C(=O)N/N=C/c1ccc(O)c(O)c1)c(C)n2C,"29.1 µM [falling, single point]",–
Oc1ccccc1CNc1ncc(Br)cc1Br,"35.5 µM [rising, single point]",–
Cc1cc(Oc2ccc(-c3ccccc3)cc2)n2ncnc2n1,"4.47 µM [falling, full curve]",–
CCOC(=O)c1c(-c2ccc(OC)cc2)oc2cc(Br)c(O)cc12,"14.1 µM [rising, partial curve, poor fit]",–
CCOCC(=O)Nc1nc2ccccc2s1,"20.6 µM [falling, partial curve]",–
Cc1ccc(-n2c([C@@H]3C[C@H]3c3ccccc3)n[nH]c2=S)cc1,"9.2 µM [rising, partial curve, poor fit]",–
Oc1ccccc1OCCOc1ccccc1OCCOc1ccccc1O,"11.2 µM [falling, partial curve, poor fit]",–
Cc1cc([N+](=O)[O-])nn1CC(=O)NCc1ccccc1,"15.8 µM [rising, single point]",–
Clc1cccc(NCc2nnc(SCc3ccccc3Cl)o2)c1,"29.1 µM [rising, single point]",–
CC(C)(C)c1nnc(NC(=O)CCS(=O)(=O)Cc2ccccc2)s1,"14.1 µM [falling, partial curve]",–
c1ccc2c(c1)CCCN2Cc1nnnn1CC1CCCO1 (configuration not stated),"11.6 µM [rising, single point]",–
COc1ccc(-c2nn(-c3ccccc3)cc2C(=O)Nc2nccs2)cc1,"0.326 µM [falling, full curve, poor fit]",–
